The values that follow come from PubChem BioAssay AID2685 (National Center for Advancing Translational Sciences (NCATS), 2010).

The test in a line: qHTS Assay for Lipid Storage Modulators in Drosophila S3 Cells.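 For cell number change: cells counted by Cell Tracker Red CMTPX staining in the red channel.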 The note with it: BODIPY lipid droplet fluorescence, 18-24 h; for cell number change: measured here: cell count max response, cells fed with added oleic acid. The method in brief: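 Drosophila S3 cells got compounds at several concentrations plus oleic acid (400 uM solution). Laser-scanning cytometry with 488 nm excitation read lipid droplets at 500-530 nm and cells at 575-640 nm. Percent activity was relative to 20 uM Triacsin C.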

[1] abbreviates: measured here: lipid fluorescence (Fed channel) AC50, cells fed with added oleic acid.
Where [2] appears, read: measured here: cell number channel AC50, cells fed with added oleic acid.

SMILES strings stand for the structures. This is one part of the list. The main result of the screen is listed elsewhere. These columns were measured beside it and carry no call. Most of these compounds were active or inconclusive in the main read-out, so they are no random draw. The note in brackets gives the kind of curve behind each potency; many fits are weak.

Consider `COc1ccc(CN(CCCN2CCOCC2)C(=O)Nc2cccc(Cl)c2)cc1OC`, for which the cell number change is -5.81%. Under setting [1], the AC50 was 1.03 µM [rising, full curve, poor fit].
With `CC(=O)Nc1ccc(C(=O)OCC(=O)Nc2ccccc2F)cc1`, under setting [1], the AC50 is 3.66 µM [rising, single point].
For the compound `CC(=O)c1ncnn1CC(=O)c1ccc(Cl)cc1Cl`, the cell number change was -25.3%. Moreover, the AC50 under setting [2] was 2.91 µM [falling, partial curve, poor fit].
With `NC(N)=NS(=O)(=O)c1ccc(N=C2C(=O)Nc3ccccc32)cc1`, the cell number change was 12.2%. Moreover, under setting [2], the AC50 was 0.00461 µM [falling, full curve, poor fit].
For `O=C(NCc1cccs1)C1CCN(S(=O)(=O)c2cccc3cccnc23)CC1`, under setting [1], the AC50 was 0.103 µM [falling, partial curve, poor fit].
`Cc1cc(-c2nnc(SCC(=O)c3ccc4c(c3)OCCO4)o2)no1`: the cell number change is -28.8%. Moreover, the AC50 under setting [2] was 6.51 µM [rising, single point].
As for `CCOC(=O)N1CCC(N(CCN(C)C)C(=S)Nc2ccccc2OCC)CC1`, the cell number change was -13.3%. The AC50 under setting [1] was 3.66 µM [falling, single point].
Turning to `Cc1ccc(S(=O)(=O)N2CCCCC2)cc1NC(=O)CNC(C)c1ccc(Cl)c(Cl)c1` (configuration not stated), the cell number change was -11.5%. Besides, under setting [1], the AC50 is 29.1 µM [falling, single point].
`CC(=O)c1cccc(NC(=O)CNC(=O)Cc2ccccc2)c1`: the cell number change was 35.9%. The AC50 under setting [1] was 16.4 µM [rising, partial curve].
For `CCOC(=O)CSC1=C(C#N)C(c2ccc(Cl)cc2)CC(=O)N1` (configuration not stated), the cell number change stood at 18.3%. Also, the AC50 under setting [1] is 8.2 µM [rising, partial curve, poor fit].
Consider `Cc1cccc(C)c1NC(=O)Cn1nc(C)n2cccc2c1=O`, for which the cell number change is -17.5%.
Turning to `CCN(CC)CCCNC(=O)c1cn(CC)c2ccc(S(=O)(=O)N(C)C3CCCCC3)cc2c1=O`, the cell number change came to 19.1%. Also, the concentration at half-maximal activity (AC50) under setting [1] is 29.1 µM [falling, single point].
As for `CC(C)c1nc(N2CCN(C(=O)c3ccco3)CC2)c(C#N)c2c1COC(C)(C)C2`, the cell number change amounted to 6.58%. Under setting [1], the AC50 was 22.4 µM [rising, single point].
Turning to `O=C(Nc1ccncc1)Nc1cccc(F)c1`, the AC50 is 0.517 µM [rising, single point] under setting [2] and 6.51 µM [rising, single point] under setting [1].
As for `COCCSc1nnc(NS(=O)(=O)c2ccccc2)s1`, the cell number change amounted to 6.69%. In addition, the AC50 under setting [1] is 3.66 µM [falling, partial curve].
For the compound `COc1cccc(CN(C)C(=O)CCNC(=O)c2ccco2)c1`, the cell number change worked out at 12.3%. The AC50 under setting [1] is 0.206 µM [falling, partial curve, poor fit].
With `O=C(COC(=O)C1(c2ccccc2F)CCCC1)N1CCOCC1`, the cell number change amounted to 32.1%. Under setting [2], the AC50 was 25.9 µM [rising, single point].
Turning to `O=C(Nc1cccc(NC(=O)c2cccs2)c1)c1ccc2c(c1)OCO2`, the cell number change was 27.5%. Also, the AC50 under setting [2] is 1.3 µM [rising, partial curve]. For the same compound, under setting [1], the AC50 is 1.46 µM [rising, full curve].
Take `Cc1cccc(S(=O)(=O)Nc2nc3ccccc3nc2OC(C)C)c1`: the cell number change stood at 24.3%. For the same compound, the AC50 under setting [1] was 18.4 µM [rising, partial curve].
Take `CCCCNC(=O)C(C#N)c1nc2ccccc2nc1N1CCCC1` (configuration not stated): the AC50 under setting [2] was 1.46 µM [rising, partial curve] and the AC50 under setting [1] was 0.291 µM [rising, partial curve, poor fit].
Take `Cc1ccc(S(=O)(=O)N(C)C)cc1NC(=S)N(C)C1CCN(C)CC1`: the cell number change came out at 0.709%. Under setting [2], the AC50 was 0.58 µM [rising, partial curve, poor fit].
As to `CCN(C(=O)c1ccc(C)c(Br)c1)c1ccccc1`, the cell number change was -13.4%.
Consider `CCCCn1nnnc1NCc1cc(Cl)c(OC)c(OC)c1`, for which the cell number change was 80.6%. Under setting [1], the AC50 is 0.146 µM [falling, full curve, poor fit].
As for `O=C(NCCO)c1cc2ccccc2c(=O)s1`, the cell number change was -17.6%. In addition, the AC50 under setting [1] is 29.1 µM [falling, single point].
On to `O=C(CSCCc1ccccn1)Nc1cccnc1Cl`, for which the cell number change is -9.89%. For the same compound, the AC50 under setting [1] was 16.4 µM [falling, partial curve].
As for `Cc1ccc(Nc2nnc(SCC(=O)c3ccc(Br)s3)s2)c(C)c1`, the cell number change is 16.7%. Besides, the AC50 under setting [1] was 16.4 µM [rising, partial curve].
On to `COc1cc(C(F)(F)F)ccc1C(=O)NCCc1ccco1`, for which the cell number change turned out to be 4.37%.
As for `O=C(c1cnn2c(C(F)(F)F)cc(-c3ccc(Br)cc3)nc12)N1CCOCC1`, the cell number change is -24.6%. The AC50 under setting [1] is 14.6 µM [rising, partial curve, poor fit].
On to `CC(C)n1cc(C(=O)N2CCCC(N3CCN(c4cccc(Cl)c4)CC3)C2)cn1` (configuration not stated), for which the cell number change is -2.89%. Also, under setting [1], the AC50 was 0.58 µM [falling, full curve].
Regarding `O=C(CSc1ncn[nH]1)N1CCN(S(=O)(=O)c2ccc(Cl)cc2)CC1`, the cell number change was found to be 37.5%. Further, under setting [2], the AC50 was 0.013 µM [rising, full curve].
Regarding `C/C(=C\c1ccccc1)CN1CCN(Cc2ccc(C)o2)C(CCO)C1` (configuration not stated), the cell number change stood at 10.9%. Also, the AC50 under setting [1] was 25.9 µM [rising, partial curve, poor fit].
With `O=C(C1CCCN(c2ncnc3c2nc2n3CCCCC2)C1)N1CCN(c2ccccc2F)CC1` (configuration not stated), the cell number change turned out to be 4.95%. The AC50 under setting [1] is 6.51 µM [rising, single point].
For `CC(Oc1ccccc1)C(=O)Nc1ccc(C(N)=O)cc1` (configuration not stated), the cell number change worked out at 4.7%. Besides, the AC50 under setting [1] is 0.461 µM [falling, single point].
Turning to `O=C(CN1CCOCC1)Nc1ccccc1C(=O)Nc1ccccc1`, the cell number change was 5.71%.
With `CN(c1ccc(C(=O)N2CCN(Cc3ccc4c(c3)OCO4)CC2)cc1)S(=O)(=O)c1ccccc1`, the cell number change worked out at 2.8%. The AC50 under setting [2] is 1.46 µM [rising, partial curve, poor fit].
As for `O=C(NCc1ccccc1F)C1CCCN1C(=O)Nc1ccc(F)cc1` (configuration not stated), the cell number change was 28.4%. Further, the AC50 under setting [2] is 0.00461 µM [rising, full curve, poor fit].
On to `C=CCn1c(SCC(=O)Nc2ccc(NC(=O)c3ccco3)c(OC)c2)nnc1-c1ccncc1`, for which the cell number change was -6.66%. The AC50 under setting [1] is 0.411 µM [rising, full curve].
For `CC1(C)CC(=O)C(C=NCCN2CCN(C3CC(=O)N(c4cccc(Br)c4)C3=O)CC2)=C(O)C1` (configuration not stated), the AC50 under setting [1] was 0.116 µM [falling, full curve, poor fit].
For the compound `CN(C)C(CNC(=O)c1ccc2nc[nH]c2c1)c1ccccc1` (configuration not stated), the cell number change was 21.5%. Moreover, the AC50 under setting [1] was 23.1 µM [falling, single point].

By AC50 is commonly meant the midpoint of the concentration-response curve, whichever way the signal moves. Read a high AC50 as activity only at high concentration.
